# Laboratory results reported in PubChem BioAssay AID330 (DTP/NCI, 2004).
# The list shows only some results of the screen, not a fair sample: it is rich in T/C values a quarter to a half above the control, in often repeated tests (any T/C) and in doses without a T/C. Further doses and runs are listed elsewhere. T/C is the treated group as % of the vehicle group. Some doses have a count of surviving animals in place of a T/C: the source holds a T/C of zero for them, seemingly a mark for toxic or unscored doses. Some doses without a T/C left all or most animals alive at the check, yet need not have been tolerated: survival well below the control is almost never listed, so the zero probably covers shortened survival too. Counts of survivors are from the toxicity check (mostly the fifth day) where no day follows; animals may have died later. Schedule codes are those of the source, read here as Q, the interval in days (D) or hours (H), X, the number of doses. For survival time, the PubChem record calls one and a half times the control and up active, and a quarter to a half above the control has no call in these data; cut-offs in other NCI protocols can differ. Some T/C values carry the count of animals alive at the toxicity check (mostly the fifth day); where none is given, no animal had died by that day. Some doses were run more than once; the results are listed from low to high. Counts like (3×) count equal records among those shown.
# System: P388 leukemia ip, CD2F1 mice, survival T/C
# Experiment: NCI In Vivo Anticancer Drug Screen. Data for tumor model P388 Leukemia (intraperitoneal) in CD2F1 (CDF1) mice
# Conditions: T/C endpoint: median survival time, higher T/C = longer survival
# [1] = dose: 200.0 mg/kg/injection, schedule: Q01DX009 (ip), vehicle: water
# [2] = dose: 400.0 mg/kg/injection, schedule: Q04DX003 (ip), vehicle: saline
# [3] = dose: 50.0 mg/kg/injection, schedule: Q01DX005 (ip), vehicle: Klucel (hydroxypropylcellulose) (HPC)
# [4] = dose: 200.0 mg/kg/injection, schedule: Q01DX005 (ip), vehicle: Klucel (hydroxypropylcellulose) (HPC)
# [5] = dose: 50.0 mg/kg/injection, schedule: Q01DX005 (ip), vehicle: saline with Tween-80
# [6] = dose: 200.0 mg/kg/injection, schedule: Q01DX005 (ip), vehicle: saline with Tween-80
# [7] = dose: 100.0 mg/kg/injection, schedule: Q01DX009 (ip), vehicle: saline with Tween-80
# [8] = dose: 200.0 mg/kg/injection, schedule: Q01DX009 (ip), vehicle: saline with Tween-80
# [9] = dose: 100.0 mg/kg/injection, schedule: Q01DX005 (ip), vehicle: Klucel (hydroxypropylcellulose) (HPC)
compound,measurement,setting,value
CN1N=C(N)c2cn(C3OC(COP(=O)(O)O)C(O)C3O)c3ncnc1c23 (stereo not given),T/C,"dose: 6.25 mg/kg/injection, schedule: Q01DX009 (ip), vehicle: water",125 % of control
same,T/C,"dose: 12.5 mg/kg/injection, schedule: Q01DX009 (ip), vehicle: water",125 [5 of 6 alive] and 129 % of control
same,T/C,"dose: 25.0 mg/kg/injection, schedule: Q01DX009 (ip), vehicle: water",136 and 139 % of control
same,T/C,"dose: 38.0 mg/kg/injection, schedule: Q01DX005 (ip), vehicle: water",128 % of control
same,T/C,"dose: 40.0 mg/kg/injection, schedule: Q01DX005 (ip), vehicle: saline",125 % of control
same,T/C,"dose: 50.0 mg/kg/injection, schedule: Q01DX009 (ip), vehicle: water",127 and 149 % of control [5 of 6 alive]
same,T/C,"dose: 54.0 mg/kg/injection, schedule: Q01DX005 (ip), vehicle: water, evaluated on day 45","117, 119, 125 % of control (2×)"
same,T/C,"dose: 54.0 mg/kg/injection, schedule: Q01DX005 (ip), vehicle: water, evaluated on day 60","119, 123 (2×), 126, 129 % of control"
same,T/C,"dose: 54.0 mg/kg/injection, schedule: Q01DX009 (ip), vehicle: water",134 % of control
same,T/C,"dose: 80.0 mg/kg/injection, schedule: Q01DX005 (ip), vehicle: saline",133 % of control
same,T/C,"dose: 80.0 mg/kg/injection, schedule: Q01DX005 (ip), vehicle: water, evaluated on day 45","119, 124, 126, 163 % of control [9 of 10 alive]"
same,T/C,"dose: 80.0 mg/kg/injection, schedule: Q01DX005 (ip), vehicle: water, evaluated on day 60","122 [9 of 10 alive], 126, 127, 133, 135 % of control"
same,T/C,"dose: 80.0 mg/kg/injection, schedule: Q01DX009 (ip), vehicle: water",134 % of control
same,T/C,"dose: 100.0 mg/kg/injection, schedule: Q01DX009 (ip), vehicle: water",127 and 131 % of control
same,T/C,"dose: 120.0 mg/kg/injection, schedule: Q01DX005 (ip), vehicle: water, evaluated on day 45","119 [9 of 10 alive], 121 [9 of 10 alive], 125 % of control [9 of 10 alive]"
same,T/C,"dose: 120.0 mg/kg/injection, schedule: Q01DX005 (ip), vehicle: water, evaluated on day 60","116 [9 of 10 alive], 119 [7 of 10 alive], 120, 122, 125 % of control [9 of 10 alive]"
same,T/C,"dose: 120.0 mg/kg/injection, schedule: Q01DX009 (ip), vehicle: water",136 % of control [9 of 10 alive]
same,survivor count,"dose: 180.0 mg/kg/injection, schedule: Q01DX005 (ip), vehicle: water",2 of 10
same,T/C,[1],139 % of control [4 of 6 alive]
same,survivor count,[1],1 of 6
same,survivor count,"dose: 400.0 mg/kg/injection, schedule: Q01DX009 (ip), vehicle: water",0 of 6
CC(=O)N(C(C)=O)N1C(=O)C2C3C=CC(C4CC34)C2C1=O (stereo not given),survivor count,"dose: 200.0 mg/kg/injection, schedule: Q01DX009 (ip), vehicle: Klucel (hydroxypropylcellulose) (HPC)",2 of 6
CCN(CC)CCNC(=O)c1ccc2c(c1)C(=O)c1ccccc1C2=O,survivor count,[2],0 of 6
Cc1ccc(CNc2cc(C)ccn2)cc1,survivor count,"dose: 200.0 mg/kg/injection, schedule: Q01DX009 (ip), vehicle: other",3 of 6
COC(=O)c1ccc(N=NN(C)CN=[N+]=[N-])cc1,T/C,[3],130 and 134 % of control
same,survivor count,[4],0 of 6
CC1OC(OCC2OC(Oc3c(-c4ccc(O)c(O)c4)oc4cc(O)cc(O)c4c3=O)C(O)C(O)C2O)C(O)C(O)C1O (stereo not given),survivor count,[5],0 of 5
same,survivor count,"dose: 100.0 mg/kg/injection, schedule: Q01DX005 (ip), vehicle: saline with Tween-80",0 of 5
same,survivor count,[6],0 of 5
COc1cc(OC)c2c[n+](C)c3c4cc(OC)c(OC)cc4ccc3c2c1,T/C,"dose: 5.0 mg/kg/injection, schedule: Q01DX009 (ip), vehicle: saline with Tween-80",143 % of control
same,T/C,"dose: 10.0 mg/kg/injection, schedule: Q01DX009 (ip), vehicle: saline with Tween-80",146 % of control
CC(C)(C)C1=CC(=CC=C2C=CN(CCO)C=C2)C=C(C(C)(C)C)C1=O,survivor count,"dose: 60.0 mg/kg/injection, schedule: Q01DX005 (ip), vehicle: saline with Tween-80",0 of 6
same,survivor count,"dose: 120.0 mg/kg/injection, schedule: Q01DX005 (ip), vehicle: saline with Tween-80",0 of 6
same,survivor count,"dose: 240.0 mg/kg/injection, schedule: Q01DX005 (ip), vehicle: saline with Tween-80",0 of 6
CCCCCCCCCCCCSCN(CC)CC,T/C,"dose: 200.0 mg/kg/injection, schedule: Q01DX009 (ip), vehicle: saline",126 [5 of 6 alive] and 128 % of control
Nc1cc2c3c(cccc3c1)C(=O)N(CCN1CCCC1)C2=O,T/C,"dose: 6.5 mg/kg/injection, schedule: Q01DX009 (ip), vehicle: saline with Tween-80",137 % of control [5 of 6 alive]
same,T/C,"dose: 12.1 mg/kg/injection, schedule: Q01DX009 (ip), vehicle: saline with Tween-80",135 % of control
same,T/C,"dose: 25.0 mg/kg/injection, schedule: Q01DX009 (ip), vehicle: saline with Tween-80",142 % of control
O=C(/C=C/c1c2ccccc2cc2ccccc12)c1ccc(C(=O)/C=C/c2c3ccccc3cc3ccccc23)cc1,survivor count,"dose: 50.0 mg/kg/injection, schedule: Q01DX009 (ip), vehicle: saline with Tween-80",6 of 6
same,survivor count,[7],6 of 6
same,survivor count,[8],6 of 6
c1cc(CSC2=NCCN2)c2cccc(CSC3=NCCN3)c2c1,survivor count,[9],2 of 6
same,survivor count,[4],0 of 6
N#CC1CCCC(CCc2ccccc2)(c2ccccc2)C1=N (stereo not given),T/C,"dose: 200.0 mg/kg/injection, schedule: Q01DX001 (ip), vehicle: Klucel (hydroxypropylcellulose) (HPC)",126 % of control
N=C(N)c1ccc(/C=C\C=C/c2cc3cc(C(=N)N)ccc3o2)cc1,T/C,"dose: 6.25 mg/kg/injection, schedule: Q04DX003 (ip), vehicle: saline with Tween-80",126 % of control
same,T/C,"dose: 6.25 mg/kg/injection, schedule: Q04DX003 (ip), vehicle: saline",137 % of control
same,T/C,"dose: 12.5 mg/kg/injection, schedule: Q04DX003 (ip), vehicle: saline with Tween-80",140 % of control
same,T/C,"dose: 12.5 mg/kg/injection, schedule: Q04DX003 (ip), vehicle: saline",147 % of control
same,survivor count,"dose: 25.0 mg/kg/injection, schedule: Q04DX003 (ip), vehicle: saline",6 of 6
same,survivor count,"dose: 50.0 mg/kg/injection, schedule: Q04DX003 (ip), vehicle: saline",2 of 6
same,survivor count,"dose: 100.0 mg/kg/injection, schedule: Q04DX003 (ip), vehicle: saline",2 of 6
same,survivor count,"dose: 200.0 mg/kg/injection, schedule: Q04DX003 (ip), vehicle: saline",0 of 6
same,survivor count,[2],0 of 6
CCOC(=N)N1[C@H](C)[C@@H]1C,survivor count,[3],3 of 6
same,survivor count,[9],0 of 6
same,survivor count,"dose: 100.0 mg/kg/injection, schedule: Q01DX005 (ip), vehicle: saline",0 of 6
CCCOC(=O)/C=C(\I)C(=O)OCCC,survivor count,[7],2 of 6
same,survivor count,[8],0 of 6
C(=N[C@H]1CCCC[C@H]1N=Cc1ccc[nH]1)c1ccc[nH]1,survivor count,[5],6 of 6
same,survivor count,[6],6 of 6
O=c1[nH]c2ccccc2nc1N=Nc1ccccc1,survivor count,[6],2 of 6
CCOC(=O)CNc1c2ccc(Cl)cc2nc2ccc(OC)cc12,survivor count,[8],3 of 6
O=[N+]([O-])c1cccc2nc(-c3ccccn3)n(CCc3ccncc3)c12,survivor count,"dose: 400.0 mg/kg/injection, schedule: Q01DX001 (ip), vehicle: Klucel (hydroxypropylcellulose) (HPC)",6 of 6
CCOC1OCN(C2CCCCC2)CC1(C)C (stereo not given),T/C,[7],137 % of control [5 of 6 alive]
CCO/C=C1/N=C(Cc2ccccc2)OC1=O,survivor count,"dose: 240.0 mg/kg/injection, schedule: Q01DX005 (ip), vehicle: saline + Tween-80 + alcohol",6 of 6
CS(=O)(=O)OCCCl,T/C,[7],134 % of control
same,T/C,"dose: 150.0 mg/kg/injection, schedule: Q01DX005 (ip), vehicle: saline with Tween-80",125 and 128 % of control [4 of 6 alive]
same,T/C,"dose: 150.0 mg/kg/injection, schedule: Q01DX009 (ip), vehicle: saline with Tween-80",133 % of control
same,survivor count,[8],1 of 6
same,survivor count,"dose: 400.0 mg/kg/injection, schedule: Q01DX001 (ip), vehicle: saline with Tween-80",0 of 6
